The source of these data is patent US20100129290A1 (I.S.T. corporation, priority 2008, published 2010).

The nature of the data set: general procedure: Fmoc solid-phase peptide synthesis. The conditions noted are these: zwitterionic form.

A value given as a limit tells only on which side of the number the result lay.

Regarding K(DO3A)K(FAM)PHGGGWGQK(dabcyl)K(DO3A), the “final HPLC purity” value (whole synthesis, HPLC and MALDI mass spectrometry) was above 90%.
Consider K(FAM)PHGGGWGQK(dabcyl), for which the difficulty met result (conjugation step) was “failed to produce acceptable product yields, because of poor selectivity of the reaction”.
